# Results published in patent US20120101157A1, “4,5-Diamino-3-Halo-2-Hydroxybenzoic Acid Derivatives and Preparations Thereof” (NATIONAL DEFENSE MEDICAL CENTER, priority 2010, published 2012).
# Some entries share one result that the patent states for a list of compounds.
# Test system: H1N1 virus
# Assay type: cell-based
# Details: H1N1 in MDCK cells
smiles,measurement,value
"CC(=O)Nc1c(N)cc(C(=O)O)c(O)c1Br [compound 8, 4-(acetamido)-5-amino-3-bromo-2-hydroxybenzoic acid]",SI (selective index=CC50/MIC),higher than 64
